Laboratory results from US10844023B2 (Washington University, priority 2017, dated 2020).
Some of these results come from one statement about several compounds together.

System: Mfn2 null MEFs
Assay: LIVE/DEAD cytotoxicity assay (calcein AM/ethidium homodimer)
Format: cell-based
Details: overnight, Live-Dead stain

`CCn1c(CCCNC(=O)NC2CCOCC2)nnc1C1CC1` [Mitolityn-4, 1-(3-(5-cyclopropyl-4-ethyl-4H-1,2,4-triazol-3-yl)propyl)-3-(tetrahydro-2H-pyran-4-yl)urea] was tested, and the “No cytotoxicity up to drug concentration” value was greater than 100 mM.
